Assay results published in the supplement of paper PMC10338343.
± gives the standard deviation. Only a part is listed here, and it is no random draw. The uncertainty is large for many entries.

system: MIWI (PIWIL1) piRISC loaded with piRNA #2 (30 nt); assay: pre-steady-state target cleavage rate (min^-1); MIWI and MILI are mouse PIWI proteins and EfPiwi is from a freshwater sponge; tags in brackets are library labels; higher = faster piRNA-guided slicing of the target; settings: guide: piRNA #2 5'p-UUAGGUAACCCAGUAGAUCCAGAGGAAUUC; auxiliary factor: 500 nM mouse GTSF1
Description: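 Cleave-'n-Seq: a library of target RNAs (target site embedded in constant flanks, ACAGCATTCCGCGTTAGTGATATCCG... 5' flank; DNA-blocked outside the site) at 0.1 nM was incubated with 1 nM active mouse MILI or MIWI piRISC (synthetic 5'-monophosphorylated piRNA guide) with or without 500 nM mouse GTSF1 at 33 °C for 1 min to 16 h. Uncleaved targets were sequenced and normalised to non-target controls, and the pooled three trials were fitted to a burst-and-steady-state model to give the pre-steady-state cleavage rate (min^-1; k3 is constrained to at most 1e-4). Sequence is the target site only; target names encode pairing extent (gX:gY) and contiguous / 1-mismatch / 2-mismatch / bulge geometry. Fits with R² ≤ 0 are excluded.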

Question: With CUUAAGGAGACCUAGACCUGGGUUACCUAA as the sequence, how does the “pre-steady-state target cleavage rate” value read?
Answer: Its value is 0.000645 ± 0.0097.

Question: Which “pre-steady-state target cleavage rate” value does the source give for CUAUUCCUCUGGAUCUACUGGGUUAACUAA here?
Answer: Its value is 0.349 ± 0.071.

Question: How did the “pre-steady-state target cleavage rate” value turn out when CUUAAGGAGUGGAUCUUCUCGGUUACCUAA was run?
Answer: Its value is 0.000948 ± 0.012.

Question: How did the “pre-steady-state target cleavage rate” value turn out when CUUAAGGAGACCUACUACUGGGUUACCAA was run?
Answer: Its value is 0.00201 ± 0.0034.

Question: For CUUAAGGAGAGGAUCUACUGGGGUACCUAA, which “pre-steady-state target cleavage rate” value is on record?
Answer: Its value is 0.00225 ± 0.0056.

Question: CUUAAGGAGUCGAUCUACUGCGUUACCUAA was tested. Which “pre-steady-state target cleavage rate” value did it give?
Answer: Its value is 0.000666 ± 0.014.

Question: Which “pre-steady-state target cleavage rate” value does the source give for CUUAAGGACUGCAUCUAGUGGGUUACCUAA here?
Answer: Its value is 0.00102 ± 0.021.

Question: Which “pre-steady-state target cleavage rate” value does the source give for CUUAAGGAGAGGAAGUACUGGGUUACCUAA here?
Answer: Its value is 0.000368 ± 0.024.

Question: Which “pre-steady-state target cleavage rate” value does the source give for CUUAAGGAGAGGUUCUACUGGGUUACCAAA here?
Answer: The value was 0.00205 ± 0.0036.

Question: With CUUAUCCUCUGGAUACUACUGGGUUACCUAA as the sequence, how does the “pre-steady-state target cleavage rate” value read?
Answer: Its value is 0.419 ± 0.059.

Question: Which “pre-steady-state target cleavage rate” value does the source give for CUUAAGGAGAGGAUCAACUGGGUUACCAAA here?
Answer: The value was 0.00031 ± 0.017.

Question: CUUAAGGACUGGACUACUGGGUUACCUAA was tested. Which “pre-steady-state target cleavage rate” value did it give?
Answer: The value was 0.00281 ± 0.013.

Question: How did the “pre-steady-state target cleavage rate” value turn out when CUUAAGGAGACCUUCUACUGGGCUACCUAA was run?
Answer: Its value is 0.00139 ± 0.0086.

Question: CUUAAGGAGUGGAUCUACUGGGUAACCAAA was tested. Which “pre-steady-state target cleavage rate” value did it give?
Answer: The value was 0.000256 ± 0.021.

Question: How did the “pre-steady-state target cleavage rate” value turn out when CUUAAGGAGACCUACUACUGGCUUACGUAA was run?
Answer: The value was 0.00155 ± 0.007.

Question: How did the “pre-steady-state target cleavage rate” value turn out when CUUAAGGAGACCUACUACUGGGUUAGCUAA was run?
Answer: Its value is 0.00141 ± 0.0043.

Question: For CUUAAGGAGUGGAUCUACUCGCUUACCUAA, which “pre-steady-state target cleavage rate” value is on record?
Answer: Its value is 0.000421 ± 0.025.

Question: How did the “pre-steady-state target cleavage rate” value turn out when CUUAAGGAGACCUAGUAGCUGGGUUACCUAA was run?
Answer: Its value is 0.000957 ± 0.0081.

Question: For CUUAAGGAGACCAUCUACUGGCAAACCUAA, which “pre-steady-state target cleavage rate” value is on record?
Answer: Its value is 0.000112 ± 0.032.

Question: For CUUAAGGAGACCUAGUACUGGGUUACACUAA, which “pre-steady-state target cleavage rate” value is on record?
Answer: The value was 0.000699 ± 0.011.

Question: CUUAAGGAGACCUACUACUGGGUUACCUAAA was tested. Which “pre-steady-state target cleavage rate” value did it give?
Answer: The value was 0.00284 ± 0.0042.

Question: Which “pre-steady-state target cleavage rate” value does the source give for CUUAAGGAGACCUAGUACUGGGAUUACCUAA here?
Answer: The value was 0.000773 ± 0.0084.

Question: CUUAAGGAGACCUUUUACUGGGUUACCUAA was tested. Which “pre-steady-state target cleavage rate” value did it give?
Answer: The value was 0.00255 ± 0.0046.

Question: CUUAAGGAGACGAUCUAUCUGGGUUACCUAA was tested. Which “pre-steady-state target cleavage rate” value did it give?
Answer: The value was 0.000993 ± 0.012.

Question: Which “pre-steady-state target cleavage rate” value does the source give for CUUAAGGAGACGAACUACUGGGUUUCCUAA here?
Answer: The value was 0.000951 ± 0.0059.

Question: How did the “pre-steady-state target cleavage rate” value turn out when CUUAAGGAGUGGAUCUACUGGGUUUCCUUA was run?
Answer: The value was 0.00259 ± 0.0031.

Question: How did the “pre-steady-state target cleavage rate” value turn out when CUUAAGCUCUGGAUCUACUGGGUUACCUCAA was run?
Answer: Its value is 0.0988 ± 0.015.

Question: How did the “pre-steady-state target cleavage rate” value turn out when CUUAAGGAGACGAUCUACUGGGUUACCCUAA was run?
Answer: The value was 0.00138 ± 0.0032.

Question: With CUUAAGGAGUGGAUCUACUCCGUUACCUAA as the sequence, how does the “pre-steady-state target cleavage rate” value read?
Answer: The value was 0.00175 ± 0.0093.

Question: How did the “pre-steady-state target cleavage rate” value turn out when CUUAAGGAGAGGAUCUUACUGGGUUACCUAA was run?
Answer: The value was 0.000254 ± 0.019.

Question: For CUAUUCGUCUGGAUCUACUGGGUUACCAAA, which “pre-steady-state target cleavage rate” value is on record?
Answer: Its value is 0.36 ± 0.064.

Question: Which “pre-steady-state target cleavage rate” value does the source give for CUUAAGGAGACCAUCAACUGGGUUACGUAA here?
Answer: The value was 0.000146 ± 0.03.

Question: CUUAAGGAGACCUAGAUCUGGGUUAGCUAA was tested. Which “pre-steady-state target cleavage rate” value did it give?
Answer: Its value is 0.000569 ± 0.0097.

Question: For CUUAAGGAGACCAUCUAGUGGGUUAGCUAA, which “pre-steady-state target cleavage rate” value is on record?
Answer: The value was 0.000641 ± 0.016.

Question: For CUUAAGGAGUGGAACUACUGGGUUUCCUAA, which “pre-steady-state target cleavage rate” value is on record?
Answer: The value was 0.000655 ± 0.017.

Question: For CUAUUCCUCUGGUUCUACUGGGUUACCUUA, which “pre-steady-state target cleavage rate” value is on record?
Answer: Its value is 0.371 ± 0.057.

Question: Which “pre-steady-state target cleavage rate” value does the source give for CUUAAGGAGACCUACUACUGGCAUACCUAA here?
Answer: Its value is 0.000715 ± 0.007.

Question: CUUAAGGAGACGAUCUACGGGUUACCUAA was tested. Which “pre-steady-state target cleavage rate” value did it give?
Answer: Its value is 0.00144 ± 0.0086.

Question: GAAUUGCUCAGGAUCUACUGGGUUACCUAA was tested. Which “pre-steady-state target cleavage rate” value did it give?
Answer: The value was 0.168 ± 0.037.

Question: For CUUAAGGAGACCUUCUACUCGGUUACCAAA, which “pre-steady-state target cleavage rate” value is on record?
Answer: Its value is 0.000734 ± 0.0098.

Question: How did the “pre-steady-state target cleavage rate” value turn out when CUUAAGGACUGCAUCUACUGGGAUACCUAA was run?
Answer: The value was 0.000558 ± 0.033.

Question: How did the “pre-steady-state target cleavage rate” value turn out when CUAUUCCUCUGGAAGUACUGGGUUACCUAA was run?
Answer: The value was 0.631 ± 0.046.

Question: With CAAUUCCUCUUGGAUCUACUGGGUUACCUAA as the sequence, how does the “pre-steady-state target cleavage rate” value read?
Answer: The value was 0.358 ± 0.046.

Question: For GAAUUCCUCUGGUUCUACUGGGUUUCCUAA, which “pre-steady-state target cleavage rate” value is on record?
Answer: The value was 0.923 ± 0.3.

Question: Which “pre-steady-state target cleavage rate” value does the source give for CUUAAGGAGACCUAGUACUGGGUUACCUAAA here?
Answer: Its value is 0.000845 ± 0.0085.

Question: Which “pre-steady-state target cleavage rate” value does the source give for CUUAAGGAGACCUUCUACUGGGUUACCUGA here?
Answer: The value was 0.000964 ± 0.0086.

Question: With CUUAAGGACUGGAUCUACUCGGUUACCUUA as the sequence, how does the “pre-steady-state target cleavage rate” value read?
Answer: The value was 0.013 ± 0.018.

Question: CUUAAGGACUGGAUCUUCUCGGUUACCUAA was tested. Which “pre-steady-state target cleavage rate” value did it give?
Answer: Its value is 0.00636 ± 0.01.

Question: For CUUAAGGAGACCAUCUACUGGGUUACUAA, which “pre-steady-state target cleavage rate” value is on record?
Answer: The value was 0.000889 ± 0.0069.

Question: How did the “pre-steady-state target cleavage rate” value turn out when CUUAAGGAGACCUAGAUGAGGGUUACGUAA was run?
Answer: Its value is 0.000924 ± 0.0066.

Question: How did the “pre-steady-state target cleavage rate” value turn out when GAAUUCCUCUGGAUCUACUGGAGUUACCUAA was run?
Answer: The value was 0.00576 ± 0.0035.

Question: For CUUAAGGAGACGAUCUACUGGCUUACCUAA, which “pre-steady-state target cleavage rate” value is on record?
Answer: The value was 0.000737 ± 0.015.

Question: With CUUUUCCUCUCCAUCUACUGGGUUACCUAA as the sequence, how does the “pre-steady-state target cleavage rate” value read?
Answer: Its value is 0.554 ± 0.044.

Question: For CUUAAGGAGACCAUCUACUGGGUAACCUAA, which “pre-steady-state target cleavage rate” value is on record?
Answer: The value was 0.000893 ± 0.0039.

Question: With CUUAAGGACUGGAUGUACUGGGAUACCUAA as the sequence, how does the “pre-steady-state target cleavage rate” value read?
Answer: The value was 0.016 ± 0.019.

Question: CUUAAGGAGACCUAGUACAGGGUUACGUAA was tested. Which “pre-steady-state target cleavage rate” value did it give?
Answer: Its value is 0.000683 ± 0.01.

Question: Which “pre-steady-state target cleavage rate” value does the source give for CUUAAGGAGACCUACUACUGGGUUACGCUAA here?
Answer: The value was 0.0018 ± 0.0053.

Question: How did the “pre-steady-state target cleavage rate” value turn out when “CUUUUCCUCUGGAUCUACUGCCAAUGGAUA [g11:g27:cont:t1A]” was run?
Answer: The value was 0.000115 ± 0.027.

Question: CUUAAGGAGACCUAGAUGACGAGUUACCUAA was tested. Which “pre-steady-state target cleavage rate” value did it give?
Answer: The value was 0.000205 ± 0.016.

Question: With “CUUAAGGAGACCUACUACUGGGUUACCUAU [g2:g16:cont:t1U]” as the sequence, how does the “pre-steady-state target cleavage rate” value read?
Answer: The value was 0.00178 ± 0.007.

Question: Which “pre-steady-state target cleavage rate” value does the source give for CUUAUCCUCUGGAUCUACUGGUUACCUAA here?
Answer: Its value is 0.0947 ± 0.024.

Question: How did the “pre-steady-state target cleavage rate” value turn out when “CAAUUCCUCUGGAUCUACUGGGUUAGGAUA [g6:g29:cont:t1A]” was run?
Answer: Its value is 0.00199 ± 0.0063.

Question: CUUAAGGAGACCAUCUACUCCCUUACCUAA was tested. Which “pre-steady-state target cleavage rate” value did it give?
Answer: The value was 0.000407 ± 0.021.

Question: CUUAAGGAGACGAUCUACUGGGUUACCAUAA was tested. Which “pre-steady-state target cleavage rate” value did it give?
Answer: The value was 0.0011 ± 0.0067.

Question: With CUUAAGGAGACGAGUCUACUGGGUUACCUAA as the sequence, how does the “pre-steady-state target cleavage rate” value read?
Answer: The value was 0.000928 ± 0.0081.

Question: CAAUUCCUCUGGGUCUACUGGGUUACCUAA was tested. Which “pre-steady-state target cleavage rate” value did it give?
Answer: The value was 0.562 ± 0.037.

Question: CUUUUCCUCUGGAUCAACUGGGUUUCCUAA was tested. Which “pre-steady-state target cleavage rate” value did it give?
Answer: Its value is 0.165 ± 0.034.

Question: How did the “pre-steady-state target cleavage rate” value turn out when CUUAAGGAGACGAUCUACUGGCUUACCAAA was run?
Answer: The value was 0.000193 ± 0.029.

Question: For CUUAAGGAGACCAUCUUCUGGCUUACCUAA, which “pre-steady-state target cleavage rate” value is on record?
Answer: The value was 0.00117 ± 0.0045.

Question: For CUUAAGGACUGGAUCUACUCGGUUUCCUAA, which “pre-steady-state target cleavage rate” value is on record?
Answer: The value was 0.00176 ± 0.016.

Question: CUUAAGGUCUGCUACUACUGGGUUACCUAA was tested. Which “pre-steady-state target cleavage rate” value did it give?
Answer: The value was 0.00486 ± 0.0087.
